Reference: the supplement of paper PMC8728848
The list shows a part of the results.

What was measured:
Experiment in all cases: glycan array binding signal (z-score within array); higher = stronger binding
Details in all cases: glycan notation: IUPAC condensed, linker removed
[1] = target: Gal(b1-4)GlcNAc(b1-3)Gal(b1-4)GlcNAc(b1-3)Gal(b1-4)GlcNAc(b1-3)Gal(b1-4)GlcNAc(b1-2)Man(a1-3)[Gal(b1-4)GlcNAc(b1-3)Gal(b1-4)GlcNAc(b1-3)Gal(b1-4)GlcNAc(b1-3)Gal(b1-4)GlcNAc(b1-2)Man(a1-6)]Man(b1-4)GlcNAc(b1-4)[Fuc(a1-6)]GlcNAc
Outline: (§1)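 Negative Z-scores can be read as non-binding. The Z-score is calculated within each array and then averaged across arrays of one protein sequence at different concentrations or buffers and across linkers. Arrays, 3228 in all, were curated from the Consortium for Functional Glycomics database and kept only where the protein sequence was available.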

[2] = target: Gal(b1-4)GlcNAc(b1-3)Gal(b1-4)GlcNAc(b1-3)Gal(b1-4)GlcNAc(b1-3)Gal(b1-4)GlcNAc(b1-2)[Gal(b1-4)GlcNAc(b1-3)Gal(b1-4)GlcNAc(b1-3)Gal(b1-4)GlcNAc(b1-3)Gal(b1-4)GlcNAc(b1-6)]Man(a1-6)[Gal(b1-4)GlcNAc(b1-3)Gal(b1-4)GlcNAc(b1-3)Gal(b1-4)GlcNAc(b1-3)Gal(b1-4)GlcNAc(b1-2)Man(a1-3)]Man(b1-4)GlcNAc(b1-4)[Fuc(a1-6)]GlcNAc
Outline: as §1

[3] = target: Gal(b1-4)GlcNAc(b1-3)Gal(b1-4)GlcNAc(b1-3)Gal(b1-4)GlcNAc(b1-3)Gal(b1-4)GlcNAc(b1-3)Gal(b1-4)GlcNAc(b1-2)Man(a1-3)[Gal(b1-4)GlcNAc(b1-3)Gal(b1-4)GlcNAc(b1-3)Gal(b1-4)GlcNAc(b1-3)Gal(b1-4)GlcNAc(b1-3)Gal(b1-4)GlcNAc(b1-2)Man(a1-6)]Man(b1-4)GlcNAc(b1-4)GlcNAc
Outline: as §1

[4] = target: Gal(b1-4)GlcNAc(b1-3)Gal(b1-4)GlcNAc(b1-3)Gal(b1-4)GlcNAc(b1-3)Gal(b1-4)GlcNAc(b1-3)Gal(b1-4)GlcNAc(b1-2)Man(a1-3)[Gal(b1-4)GlcNAc(b1-3)Gal(b1-4)GlcNAc(b1-3)Gal(b1-4)GlcNAc(b1-3)Gal(b1-4)GlcNAc(b1-3)Gal(b1-4)GlcNAc(b1-2)Man(a1-6)]Man(b1-4)GlcNAc(b1-4)[Fuc(a1-6)]GlcNAc
Outline: as §1

[5] = target: Gal(b1-4)GlcNAc(b1-3)Gal(b1-4)GlcNAc(b1-3)Gal(b1-4)GlcNAc(b1-3)Gal(b1-4)GlcNAc(b1-3)Gal(b1-4)GlcNAc(b1-2)[Gal(b1-4)GlcNAc(b1-3)Gal(b1-4)GlcNAc(b1-3)Gal(b1-4)GlcNAc(b1-3)Gal(b1-4)GlcNAc(b1-3)Gal(b1-4)GlcNAc(b1-6)]Man(a1-6)[Gal(b1-4)GlcNAc(b1-3)Gal(b1-4)GlcNAc(b1-3)Gal(b1-4)GlcNAc(b1-3)Gal(b1-4)GlcNAc(b1-3)Gal(b1-4)GlcNAc(b1-2)Man(a1-3)]Man(b1-4)GlcNAc(b1-4)[Fuc(a1-6)]GlcNAc
Outline: as §1

[6] = target: Gal(b1-4)GlcNAc(b1-3)Gal(b1-4)GlcNAc(b1-3)Gal(b1-4)GlcNAc(b1-3)Gal(b1-4)GlcNAc(b1-3)Gal(b1-4)GlcNAc(b1-3)Gal(b1-4)GlcNAc(b1-2)Man(a1-3)[Gal(b1-4)GlcNAc(b1-3)Gal(b1-4)GlcNAc(b1-3)Gal(b1-4)GlcNAc(b1-3)Gal(b1-4)GlcNAc(b1-3)Gal(b1-4)GlcNAc(b1-3)Gal(b1-4)GlcNAc(b1-2)Man(a1-6)]Man(b1-4)GlcNAc(b1-4)GlcNAc
Outline: as §1

[7] = target: Gal(b1-4)GlcNAc(b1-3)Gal(b1-4)GlcNAc(b1-3)GalNAc
Outline: as §1

[8] = target: Gal(b1-4)GlcNAc(b1-3)Gal(b1-4)GlcNAc(b1-3)[Gal(b1-4)GlcNAc(b1-3)Gal(b1-4)GlcNAc(b1-6)]GalNAc
Outline: as §1

[9] = target: Gal(b1-4)GlcNAc(b1-3)Gal(b1-4)GlcNAc(b1-6)[Gal(b1-3)]GalNAc
Outline: as §1

[10] = target: Gal(b1-4)GlcNAc(b1-3)Gal(b1-4)[Fuc(a1-3)]GlcNAc(b1-3)Gal(b1-4)[Fuc(a1-3)]GlcNAc
Outline: as §1

[11] = target: Gal(b1-4)GlcNAc(b1-3)GalNAc
Outline: as §1

[12] = target: Gal(b1-4)GlcNAc(b1-3)[Fuc(a1-3)GlcNAc(b1-6)]Gal(b1-4)Glc
Outline: as §1

[13] = target: Gal(b1-4)GlcNAc(b1-3)[Gal(b1-4)GlcNAc(b1-6)]Gal(b1-4)GlcNAc
Outline: as §1

[14] = target: Gal(b1-4)GlcNAc(b1-3)[GlcNAc(b1-6)]Gal(b1-4)GlcNAc
Outline: as §1

[15] = target: Gal(b1-4)GlcNAc(b1-6)Gal(b1-4)GlcNAc
Outline: as §1

[16] = target: Gal(b1-4)GlcNAc(b1-6)Gal(b1-4)GlcNAc(b1-6)GalNAc
Outline: as §1

[17] = target: Gal(b1-4)GlcNAc(b1-6)GalNAc
Outline: as §1

[18] = target: Gal(b1-4)GlcNAc(b1-6)[Gal(b1-3)]GalNAc
Outline: as §1

[19] = target: Gal(b1-4)GlcNAc(b1-6)[Gal(b1-4)GlcNAc(b1-3)]GalNAc
Outline: as §1

[20] = target: Gal(b1-4)GlcNAc6P
Outline: as §1

[21] = target: Gal(b1-6)Gal
Outline: as §1

[22] = target: Gal3S(b1-3)GalNAc
Outline: as §1

[23] = target: Gal3S(b1-3)GlcNAc
Outline: as §1

B1: BabA (Helicobacter pylori), O52269_HELPY (protein)
chain: AEDDGFYMSAGYQIGEAAQMVKNTKGIQELSDNYENLSNLLTRYSTLNTLIKLSADPSAVNAARENLGASAKNLIGDTKNSPAYQAVLLAINAAVGFWNVVGYVTQCGGNANGQKSTSSTTIFNNEPGYRSTSITCSLNGHMPGYYGPMSIENFKKLNEAYQILQTALKNGLPALKENNGTVNVTYSYTCSGEGNDNCSLQTTGVTNQNNGTKTETQTIDGKSVTTTISSKVVDSQ
glycan array binding signal (z-score) [1]: 2.38 | glycan array binding signal (z-score) [2]: 2.33 | glycan array binding signal (z-score) [3]: 3.86 | glycan array binding signal (z-score) [4]: 1.89 | glycan array binding signal (z-score) [5]: 1.28 | glycan array binding signal (z-score) [6]: 2.17 | glycan array binding signal (z-score) [7]: 1.12 | glycan array binding signal (z-score) [8]: 4.39 | glycan array binding signal (z-score) [9]: 0.79 | glycan array binding signal (z-score) [10]: -0.094 | glycan array binding signal (z-score) [11]: -0.402 | glycan array binding signal (z-score) [12]: -0.255 | glycan array binding signal (z-score) [13]: -0.596 | glycan array binding signal (z-score) [14]: 0.245 | glycan array binding signal (z-score) [15]: -1.07 | glycan array binding signal (z-score) [16]: -0.337 | glycan array binding signal (z-score) [17]: -0.445 | glycan array binding signal (z-score) [18]: 0.301 | glycan array binding signal (z-score) [19]: -0.568 | glycan array binding signal (z-score) [20]: -0.11 | glycan array binding signal (z-score) [21]: -0.155 | glycan array binding signal (z-score) [22]: 0.171 | glycan array binding signal (z-score) [23]: -0.131
